Measurements published in patent US20110143394.

Chains of the proteins cited; added tags and fusions are not shown. Lines headed by an entry give the natural chain unless they say otherwise; changes in a name come on top.
UniProt Q9K492: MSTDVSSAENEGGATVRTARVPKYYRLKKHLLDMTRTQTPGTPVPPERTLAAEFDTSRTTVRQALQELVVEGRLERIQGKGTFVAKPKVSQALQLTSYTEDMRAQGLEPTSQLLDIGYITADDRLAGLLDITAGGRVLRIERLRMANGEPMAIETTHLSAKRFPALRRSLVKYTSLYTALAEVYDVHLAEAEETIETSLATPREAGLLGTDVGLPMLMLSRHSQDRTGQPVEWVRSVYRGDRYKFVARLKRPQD

Molecular target: DasR (SCO5231) (Streptomyces coelicolor) (UniProt Q9K492)
Assay: footprint
Settings: 10-80 pmol DasR; BSA no protection; purified recombinant protein; protein details: His6; label: 32P

“ACCTTGCTACGCATCGCTCAACCCCAGGCAGGAGTGACGACTGTACACGGGGCCGCGGAACGGGTGCAAATCCGTGAGGAGTGTGGTCTAGACCTCTAATCGGAACACTCATGCGGAACCGGTACTTCCTATGACATACCCTGCTGCTCAGTGTGCCGTCCGGGACAAGGCAGTGACGGCCCGTACAGATCCCCGCCCTGGGAGGCTTCCCATGACCACCGTCTCGTCCCCGCTCGCAGGA (double strand) [crr-ptsI promoter footprint probe (-202/+8)]”: binds.
